From publication PMC5996148 come the findings set out here.

The list shows a part of the results.

What all share (test): protein microarray (ProtoArray v5.0), streptavidin-Alexa Fluor 647
What all share (conditions): 3'-biotin; 20 mM Tris (pH 7.5), 5 mM MgCl2, 100 mM KCl, 0.1% Tween-20, A/T-rich and random oligonucleotide blockers; temperature not stated; high values mean tight binding

For experiment [1], the system named is cDNA clone IMAGE:4476475, complete cds (human).
The subject of experiment [2] is cDNA clone IMAGE:4827883 (human).
The subject of experiment [3] is cDNA clone IMAGE:5263629 (human).
Experiment [4] deals with cDNA clone MGC:110973 IMAGE:6156156 (human).
Experiment [5] has as its system cDNA clone MGC:120780 IMAGE:7939590 (human).
Experiment [6] relates to cDNA clone MGC:12166 IMAGE:3828551 (human).
Experiment [7] has as its system cDNA clone MGC:12418 IMAGE:3934658, complete cds (human).
Experiment [8] deals with cDNA clone MGC:15478 IMAGE:2967661, complete cds (human).
Experiment [9] has as its system cDNA clone MGC:163527 IMAGE:40146686 (human).
Experiment [10] relates to cDNA clone MGC:16743 IMAGE:4130428 (human).
The test system of experiment [11] is cDNA clone MGC:17055 IMAGE:4338834 (human).
Experiment [12] relates to cDNA clone MGC:21889 IMAGE:4345550, complete cds (human).
Experiment [13] concerns cDNA clone MGC:23693 IMAGE:4767650 (human).
Experiment [14] concerns cDNA clone MGC:25008 IMAGE:4453355, complete cds (human).
Experiment [15] concerns cDNA clone MGC:25024 IMAGE:4470095 (human).
The test system of experiment [16] is cDNA clone MGC:26894 IMAGE:4828475 (human).
Experiment [17] relates to cDNA clone MGC:31944 IMAGE:4878869, complete cds (human).
The test system of experiment [18] is cDNA clone MGC:3195 IMAGE:3357276 (human).
In experiment [19] the test system is cDNA clone MGC:32654 IMAGE:4701898, complete cds (human).
The test system of experiment [20] is cDNA clone MGC:34832 IMAGE:5203730 (human).

Regarding “GGGAGGCTGAGGCAGG [G4-1 biotinylated (PQS2)]”, the binding signal in experiment [1] was -0.293 z-score; in [2], -0.314 z-score; in experiment [3], -0.36 z-score; in experiment [4], -0.322 z-score; in experiment [5], -0.327 z-score; in experiment [6], -0.324 z-score. Also, the binding signal in experiment [7] was -0.312 z-score; in [8] it was -0.356 z-score; in experiment [9], -0.298 z-score; in experiment [10], -0.35 z-score; in experiment [11] it was -0.349 z-score; in experiment [12], -0.285 z-score. Moreover, the binding signal in experiment [13] was -0.341 z-score; in [14], -0.336 z-score; in experiment [15], -0.282 z-score; in experiment [16], -0.258 z-score; in [17], -0.291 z-score; in experiment [18], -0.281 z-score. Moreover, the binding signal in [19] was -0.358 z-score; in experiment [20], -0.33 z-score.
